Reference: article PMC9586872
Results are given in words; binding and its absence hold for the method and conditions named. Binding seen in cells or lysates may run through a third protein. Some results given as binding are weak or reduced against the parent protein; the word gives no strength.

By UniProt entry, the sequences of proteins in these tests, tags left out. Where a name states a change or a piece, a line headed by the entry shows the natural chain unless it says otherwise. Chains listed by the source or under a name are the forms on record and can include a tag or linker. Residues count along the entry.
WT ALK (expressed from plasmid) (Q9UM73, residues 19-1620): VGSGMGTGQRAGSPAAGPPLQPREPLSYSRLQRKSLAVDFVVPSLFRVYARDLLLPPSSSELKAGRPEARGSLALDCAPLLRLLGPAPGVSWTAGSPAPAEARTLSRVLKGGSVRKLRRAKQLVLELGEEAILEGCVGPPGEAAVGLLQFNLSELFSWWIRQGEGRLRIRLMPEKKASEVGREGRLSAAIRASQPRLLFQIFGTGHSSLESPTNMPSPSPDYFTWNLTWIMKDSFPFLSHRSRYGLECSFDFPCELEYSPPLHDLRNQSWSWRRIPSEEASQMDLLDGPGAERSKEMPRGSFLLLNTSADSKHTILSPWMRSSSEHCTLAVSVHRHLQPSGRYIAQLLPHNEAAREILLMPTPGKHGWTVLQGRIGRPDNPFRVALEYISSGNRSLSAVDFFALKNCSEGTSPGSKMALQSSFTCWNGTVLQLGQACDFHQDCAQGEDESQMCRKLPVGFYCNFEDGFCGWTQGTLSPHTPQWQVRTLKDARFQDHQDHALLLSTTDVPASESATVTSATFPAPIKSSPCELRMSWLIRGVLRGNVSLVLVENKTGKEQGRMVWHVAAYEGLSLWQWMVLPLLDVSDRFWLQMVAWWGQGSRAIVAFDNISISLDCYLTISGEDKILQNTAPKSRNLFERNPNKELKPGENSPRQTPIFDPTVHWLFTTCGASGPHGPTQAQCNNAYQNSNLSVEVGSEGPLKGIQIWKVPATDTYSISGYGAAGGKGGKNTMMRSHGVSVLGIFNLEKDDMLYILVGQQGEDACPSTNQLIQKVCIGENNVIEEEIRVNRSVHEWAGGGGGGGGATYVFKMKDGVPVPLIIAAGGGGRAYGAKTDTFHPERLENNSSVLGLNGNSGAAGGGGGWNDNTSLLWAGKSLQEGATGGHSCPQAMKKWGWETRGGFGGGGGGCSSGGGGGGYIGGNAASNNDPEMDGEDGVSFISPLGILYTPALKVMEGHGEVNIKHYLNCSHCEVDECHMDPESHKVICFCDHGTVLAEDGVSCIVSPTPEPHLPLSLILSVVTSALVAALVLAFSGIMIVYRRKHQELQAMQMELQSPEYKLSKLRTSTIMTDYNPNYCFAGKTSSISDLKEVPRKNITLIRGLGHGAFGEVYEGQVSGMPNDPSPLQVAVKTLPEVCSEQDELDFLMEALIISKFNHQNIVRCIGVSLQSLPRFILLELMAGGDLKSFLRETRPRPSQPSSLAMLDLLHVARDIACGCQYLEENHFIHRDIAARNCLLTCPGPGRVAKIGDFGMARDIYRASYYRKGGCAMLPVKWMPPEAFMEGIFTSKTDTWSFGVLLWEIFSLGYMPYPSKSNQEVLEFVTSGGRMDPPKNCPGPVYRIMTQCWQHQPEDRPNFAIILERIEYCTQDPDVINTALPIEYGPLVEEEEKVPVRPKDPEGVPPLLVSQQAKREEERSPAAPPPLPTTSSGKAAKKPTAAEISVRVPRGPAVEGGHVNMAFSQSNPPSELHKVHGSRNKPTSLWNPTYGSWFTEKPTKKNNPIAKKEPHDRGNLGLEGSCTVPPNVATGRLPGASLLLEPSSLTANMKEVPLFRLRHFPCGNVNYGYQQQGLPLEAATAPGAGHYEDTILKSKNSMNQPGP
kinase-dead (Ile1250Thr) ALK (Q9UM73, form named): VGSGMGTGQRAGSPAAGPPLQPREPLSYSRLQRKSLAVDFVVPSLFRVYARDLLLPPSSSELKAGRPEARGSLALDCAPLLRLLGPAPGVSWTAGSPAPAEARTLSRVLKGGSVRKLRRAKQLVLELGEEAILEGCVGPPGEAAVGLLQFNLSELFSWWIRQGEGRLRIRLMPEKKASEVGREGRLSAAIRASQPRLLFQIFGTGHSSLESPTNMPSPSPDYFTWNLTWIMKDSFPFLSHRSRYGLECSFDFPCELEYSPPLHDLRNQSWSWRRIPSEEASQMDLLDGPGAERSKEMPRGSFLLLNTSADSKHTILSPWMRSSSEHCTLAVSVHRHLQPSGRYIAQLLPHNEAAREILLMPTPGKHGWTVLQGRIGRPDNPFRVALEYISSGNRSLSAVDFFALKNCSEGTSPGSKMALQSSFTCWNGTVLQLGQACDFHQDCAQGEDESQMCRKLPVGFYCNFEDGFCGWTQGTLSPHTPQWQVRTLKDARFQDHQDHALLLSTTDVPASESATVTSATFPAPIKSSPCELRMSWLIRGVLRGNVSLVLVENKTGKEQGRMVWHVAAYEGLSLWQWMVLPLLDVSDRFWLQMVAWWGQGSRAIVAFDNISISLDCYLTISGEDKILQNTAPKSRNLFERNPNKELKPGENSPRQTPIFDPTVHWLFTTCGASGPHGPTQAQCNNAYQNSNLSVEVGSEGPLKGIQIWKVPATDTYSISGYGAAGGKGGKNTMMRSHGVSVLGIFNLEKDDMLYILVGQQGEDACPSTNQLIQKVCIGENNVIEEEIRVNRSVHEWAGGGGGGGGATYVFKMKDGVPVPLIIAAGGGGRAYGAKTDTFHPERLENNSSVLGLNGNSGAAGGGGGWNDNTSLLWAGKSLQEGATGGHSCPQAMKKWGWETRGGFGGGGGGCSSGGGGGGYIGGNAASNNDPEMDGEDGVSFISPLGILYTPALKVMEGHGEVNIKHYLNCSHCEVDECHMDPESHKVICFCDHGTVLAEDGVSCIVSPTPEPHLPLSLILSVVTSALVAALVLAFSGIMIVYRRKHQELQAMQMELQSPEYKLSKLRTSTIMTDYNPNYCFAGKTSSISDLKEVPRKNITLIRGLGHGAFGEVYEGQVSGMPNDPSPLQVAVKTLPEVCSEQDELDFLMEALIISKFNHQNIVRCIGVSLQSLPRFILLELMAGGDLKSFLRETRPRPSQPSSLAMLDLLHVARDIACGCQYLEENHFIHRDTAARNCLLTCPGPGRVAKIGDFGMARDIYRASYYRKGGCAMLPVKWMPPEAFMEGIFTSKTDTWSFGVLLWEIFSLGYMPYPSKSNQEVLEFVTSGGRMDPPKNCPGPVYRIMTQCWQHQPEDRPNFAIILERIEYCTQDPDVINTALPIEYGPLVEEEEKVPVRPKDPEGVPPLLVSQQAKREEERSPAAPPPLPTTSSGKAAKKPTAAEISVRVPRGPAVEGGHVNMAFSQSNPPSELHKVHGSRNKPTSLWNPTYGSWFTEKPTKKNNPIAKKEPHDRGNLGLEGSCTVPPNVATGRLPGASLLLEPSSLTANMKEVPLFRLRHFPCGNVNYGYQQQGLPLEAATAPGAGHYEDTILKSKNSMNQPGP
constitutively active (Phe1174Leu) ALK (Q9UM73, form named): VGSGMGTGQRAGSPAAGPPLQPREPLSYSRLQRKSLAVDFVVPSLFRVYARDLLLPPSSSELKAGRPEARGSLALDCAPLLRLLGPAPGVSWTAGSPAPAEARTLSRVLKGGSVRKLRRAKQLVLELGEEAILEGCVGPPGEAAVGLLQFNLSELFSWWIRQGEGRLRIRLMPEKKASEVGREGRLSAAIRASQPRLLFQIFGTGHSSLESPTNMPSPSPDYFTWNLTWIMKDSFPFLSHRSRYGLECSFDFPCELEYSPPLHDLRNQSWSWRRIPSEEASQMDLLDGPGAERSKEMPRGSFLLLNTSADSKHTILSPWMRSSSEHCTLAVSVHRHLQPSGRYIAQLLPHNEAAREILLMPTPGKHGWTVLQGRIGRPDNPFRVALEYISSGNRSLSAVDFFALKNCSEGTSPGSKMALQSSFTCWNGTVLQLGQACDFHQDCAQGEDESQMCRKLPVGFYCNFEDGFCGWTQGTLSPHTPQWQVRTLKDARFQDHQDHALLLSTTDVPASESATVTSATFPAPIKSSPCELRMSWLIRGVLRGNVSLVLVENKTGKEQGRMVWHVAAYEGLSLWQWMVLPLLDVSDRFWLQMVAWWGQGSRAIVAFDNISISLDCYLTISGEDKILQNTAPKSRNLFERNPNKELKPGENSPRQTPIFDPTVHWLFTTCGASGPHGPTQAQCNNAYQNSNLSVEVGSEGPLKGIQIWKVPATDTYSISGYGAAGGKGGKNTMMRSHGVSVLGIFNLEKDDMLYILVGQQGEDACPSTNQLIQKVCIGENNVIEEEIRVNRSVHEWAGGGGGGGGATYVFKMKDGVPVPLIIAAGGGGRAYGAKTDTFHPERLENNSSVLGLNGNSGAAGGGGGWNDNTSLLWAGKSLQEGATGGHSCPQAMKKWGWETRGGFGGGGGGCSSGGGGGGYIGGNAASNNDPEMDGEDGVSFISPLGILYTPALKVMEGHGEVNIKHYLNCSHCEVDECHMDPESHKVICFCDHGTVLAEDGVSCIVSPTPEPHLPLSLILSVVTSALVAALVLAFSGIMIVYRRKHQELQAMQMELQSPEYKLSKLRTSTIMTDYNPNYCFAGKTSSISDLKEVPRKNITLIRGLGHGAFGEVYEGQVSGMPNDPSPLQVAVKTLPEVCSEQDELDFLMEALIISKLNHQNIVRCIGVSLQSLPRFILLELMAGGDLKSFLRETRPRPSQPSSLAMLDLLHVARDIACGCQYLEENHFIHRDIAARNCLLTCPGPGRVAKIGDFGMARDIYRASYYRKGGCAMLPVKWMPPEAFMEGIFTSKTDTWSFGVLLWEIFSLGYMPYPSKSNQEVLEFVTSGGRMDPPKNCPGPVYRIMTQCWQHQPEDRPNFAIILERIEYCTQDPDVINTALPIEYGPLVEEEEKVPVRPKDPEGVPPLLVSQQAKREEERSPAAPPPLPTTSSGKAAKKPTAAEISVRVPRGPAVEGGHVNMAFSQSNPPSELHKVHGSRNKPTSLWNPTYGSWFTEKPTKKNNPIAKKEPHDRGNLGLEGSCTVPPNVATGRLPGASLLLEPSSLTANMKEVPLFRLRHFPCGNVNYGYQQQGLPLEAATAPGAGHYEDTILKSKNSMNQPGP
UniProt P50750: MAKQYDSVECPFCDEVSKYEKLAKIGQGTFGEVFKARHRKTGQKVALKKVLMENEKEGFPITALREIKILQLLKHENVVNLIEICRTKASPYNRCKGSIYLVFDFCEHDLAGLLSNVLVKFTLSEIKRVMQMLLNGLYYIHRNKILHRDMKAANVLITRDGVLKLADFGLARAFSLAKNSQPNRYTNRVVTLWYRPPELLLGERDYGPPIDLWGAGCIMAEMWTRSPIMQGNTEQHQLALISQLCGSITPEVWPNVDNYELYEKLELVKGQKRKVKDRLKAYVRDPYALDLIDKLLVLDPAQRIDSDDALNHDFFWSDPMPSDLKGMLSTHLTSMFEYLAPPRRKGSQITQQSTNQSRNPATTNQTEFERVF

How the values were obtained:
[1] = biological target: phosphorylated anaplastic lymphoma kinase (p-ALK) (human (endogenous in SKOV3 and SUM149)) (UniProt Q9UM73); assay: proximity ligation; Duo-link assay for p-ALK and CDK9 in cells (red dots); SKOV3 cells with or without 0.5 uM lorlatinib for 24 h; SUM149 TNBC parental cells and cells with acquired PARP inhibitor resistance (nos. 6 and 15)
[2] = biological target: kinase-dead (Ile1250Thr) ALK (UniProt Q9UM73); assay: co-IP; cells coexpressing WT, Phe1174Leu or Ile1250Thr ALK with FLAG-tagged CDK9; IP with the indicated antibodies, WB of FLAG-tagged CDK9; IP buffer 25 mM Tris pH 7.4, 150 mM NaCl, 0.1% NP-40, 1 mM EDTA, 10% glycerol, 4 C
[3] = biological target: constitutively active (Phe1174Leu) ALK (UniProt Q9UM73); assay: as above
[4] = biological target: WT ALK (expressed from plasmid) (UniProt Q9UM73); assay: as above

| Substance | binding [1] | binding [2] | binding [3] | binding [4] |
| --- | --- | --- | --- | --- |
| cyclin-dependent kinase 9 (CDK9), endogenous (from UniProt P50750 1-372) (enzyme) | binds |  |  |  |
| FLAG-tagged CDK9 (coexpressed with ALK plasmids) (from UniProt P50750 1-372) (enzyme) |  | no binding | binds | binds |
